Laboratory results published in patent US20030144495, “Drosophila recombination-associated protein and methods for use” (Albert Einstein College of Medicine of Yeshiva University, published 2003).
No signal at the amounts used counts as a negative. Where a protein sequence is shown, tags need not be part of it.

Test system: T1, DRAP (recombinant) (Drosophila melanogaster)
T1 sequence (limits assumed): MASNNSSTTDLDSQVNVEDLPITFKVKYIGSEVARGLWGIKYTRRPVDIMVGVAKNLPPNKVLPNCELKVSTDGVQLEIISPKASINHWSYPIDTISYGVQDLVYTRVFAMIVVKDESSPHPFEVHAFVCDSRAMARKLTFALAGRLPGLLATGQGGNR
Test: enzyme reaction in vitro
Details: no nuclease degradation, 37 C 30 min; catalysis only, not binding; purified recombinant protein; label: 5'-32P; single-stranded DNA

**Q.** How did the “activity on this sequence” value turn out when “GGTACCCGGGGATCCTCTAGAGTCGACCTGCAG [pUC19 polylinker 33-mer]” was run?
**A.** not active
